Changes are numbered by the printed parent chain. Names and notes keep the numbering of the source.
B1: wild type IspS: P. alba MEA (+) TEV isoprene synthase, MD09-163, strain MD09-167, SEQ ID NO: 63 (protein)
chain: MEARRSANYEPNSWDYDYLLSSDTDESIEVYKDKAKKLEAEVRREINNEKAEFLTLLELIDNVQRLGLGYRFESDIRGALDRFVSSGGFDAVTKTSLHGTALSFRLLRQHGFEVSQEAFSGFKDQNGNFLENLKEDIKAILSLYEASFLALEGENILDEAKVFAISHLKELSEEKIGKELAEQVNHALELPLHRRTQRLEAVWSIEAYRKKEDANQVLLELAILDYNMIQSVYQRDLRETSRWWRRVGLATKLHFARDRLIESFYWAVGVAFEPQYSDCRNSVAKMFSFVTIIDDIYDVYGTLDELELFTDAVERWDVNAINDLPDYMKLCFLALYNTINEIAYDNLKDKGENILPYLTKAWADLCNAFLQEAKWLYNKSTPTFDDYFGNAWKSSSGPLQLVFAYFAVVQNIKKEEIENLQKYHDTISRPSHIFRLCNDLASASAEIARGETANSVSCYMRTKGISEELATESVMNLIDETWKKMNKEKLGGSLFAKPFVETAINLARQSHCTYHNGDAHTSPDELTRKRVLSVITEPILPFERENLYFQGLEHHHHHH
modifications: TEV site
B2: L494P: P. alba IspS variant L494P; pDW101, strain DW399, SEQ ID NO: 69 (protein)
chain: B1 chain with L494P
B3: T536F: P. alba IspS variant T536F; pDW87, strain DW363, SEQ ID NO: 95 (protein)
chain: B1 chain with T536F

Assay: Small scale expression and yield of purified 6xHis-tagged IspS variants
Details: yield of purified protein compared to wild type IspS
Experimental: N-terminally 6×His-tagged wild type IspS, IspS-L494P, and IspS-T536F were expressed and purified from strains MD09-167, DW399, and DW363, respectively. The growth procedure is suitable for histidine tagged enzymes expressed in BL21(λDE3)pLysS cells. A 3 ml of overnight culture was prepared for each 100 mL of planned growth. The appropriate antibiotics ([…] kanamycin, […] chloramphenicol) were added to 3 ml of LB medium in a 10 ml glass tube and was inoculated with 1 colony from a fresh plate of cells or directly from glycerol frozen cell stock. Cultures were grown at 30° C. overnight with shaking at ˜220 rpm. Day cultures were prepared in 100 mL of LB medium with appropriate antibiotics for each culture. Each 100 mL day culture was inoculated with 50 μl of overnight culture and grown at 37° C. with shaking at ˜220 rpm until the OD600 reached ˜0.4-0.6. Day cultures were then induced with 400 μM IPTG and allowed to continue growing at 30° C. with shaking at 220 rpm for ˜5-6 hours. Cells were then harvested by centrifugation at 10,000×g for 10 min, 4° C. Following Harvest, cells were used directly or stored at −80° C. until ready to process.
For purification of histidine tagged enzymes from BL21(λDE3)pLysS cells, cells were gently resuspended in fresh Lysis buffer (Lysis buffer: Ni wash buffer+0.5 mM PMST, 0.01% Tween-20, 1 mg/ml lysozyme, 0.2 mg/ml DNaseI; Ni wash buffer: 50 mM NaH2PO4, 300 mM NaCl, 20 mM Imidazole, pH 8.0). Approximately 3 ml of lysis buffer was used per 5 mL of cell pellet. Cells were then incubated on ice for approximately 30 min. The cell suspension was then lysed fully by passing 2-3 times through a french pressure cell (small french press cell at 850 psi/Low setting) until lysate started to look clear. […]
To buffer exchange the protein into a buffer suitable for protein assays and storage, a PD-10 column (GE Healthcare) was equilibrated with 25 mL PD-10 buffer (50 mM HEPES, 0.05 M NaCl, pH 7.4). […] The eluate was then analyzed by absorbance at 280 nm and SDS-PAGE gel and the samples were stored at −80° C.

First: B1
Second: B2
The “Relative Yield” value of the first is lower: 1 for the first, 1.3 for the second.

In the case of B3, the “Relative Yield” value is reported as 1.9.
